These are yes or no findings as the source states them, for the method shown. In cells and extracts the contact can be indirect. Binding can be weak; no strength is given. Values belong to the molecule of their own block, whether it stands above or below them.
Experiments:
YOD1, endogenous = molecular target: T1, YOD1, endogenous (UniProt Q32Q05); assay: co-IP; endogenous IP from cell lysates (RIPA lysis buffer with protease inhibitors) with antibodies against TRIM54 or YOD1, or IgG, overnight at 4 °C; protein A/G beads 6 h at 4 °C; washed with RIPA three times; Western blot
T1 sequence: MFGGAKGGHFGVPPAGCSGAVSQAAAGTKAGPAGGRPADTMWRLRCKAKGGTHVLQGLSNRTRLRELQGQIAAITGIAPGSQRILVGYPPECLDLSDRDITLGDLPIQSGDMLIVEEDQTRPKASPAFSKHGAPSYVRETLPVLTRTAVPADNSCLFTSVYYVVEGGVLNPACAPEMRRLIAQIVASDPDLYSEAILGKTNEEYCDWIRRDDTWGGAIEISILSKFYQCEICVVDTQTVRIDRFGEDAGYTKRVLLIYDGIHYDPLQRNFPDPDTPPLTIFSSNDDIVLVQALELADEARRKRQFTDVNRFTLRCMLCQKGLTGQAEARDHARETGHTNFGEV

[1] = molecular target: TRIM54 (tripartite motif containing 54), endogenous; assay: as above

binding (YOD1, endogenous): binds
Molecule: TRIM54 (tripartite motif containing 54), endogenous

binding [1]: binds
B1: YOD1, endogenous (protein, UniProt Q32Q05 1-343)
chain: T1 sequence

— PMC10801318
